At least one compound was matched to its structure with a doubt left.
Target: T1, amylin receptor (Rattus norvegicus, UniProt P32214)
T1 construct: membranes prepared from the nucleus accumbens portion of the brain (rat); from tissue; host or cells: rat brain, nucleus accumbens membranes
T1 sequence (P32214 25-516): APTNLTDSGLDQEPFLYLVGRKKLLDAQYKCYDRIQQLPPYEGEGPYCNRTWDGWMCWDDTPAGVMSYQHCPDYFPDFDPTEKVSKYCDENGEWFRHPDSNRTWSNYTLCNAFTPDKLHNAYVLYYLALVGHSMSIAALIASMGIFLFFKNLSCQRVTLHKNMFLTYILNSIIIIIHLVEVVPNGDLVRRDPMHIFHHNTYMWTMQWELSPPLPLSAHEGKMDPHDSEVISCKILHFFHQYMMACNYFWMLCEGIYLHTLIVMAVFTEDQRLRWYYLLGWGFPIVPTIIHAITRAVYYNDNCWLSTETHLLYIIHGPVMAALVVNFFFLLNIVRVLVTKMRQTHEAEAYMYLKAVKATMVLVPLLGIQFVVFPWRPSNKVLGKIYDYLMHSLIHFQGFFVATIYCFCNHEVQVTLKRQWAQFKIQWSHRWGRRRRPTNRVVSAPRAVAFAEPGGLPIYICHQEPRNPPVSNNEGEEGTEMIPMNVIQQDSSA
Assay: Amylin binding assay, membranes from rat nucleus accumbens, 125I-rAmylin

## CC(C)C[C@H](NC(=O)[C@H](CC(N)=O)NC(=O)[C@H](CC(N)=O)NC(=O)[C@H](CO)NC(=O)[C@H](CO)NC(=O)[C@H](CCCNC(=N)N)NC(=O)[C@@H](NC(=O)[C@H](CC(C)C)NC(=O)[C@H](Cc1ccccc1)NC(=O)[C@H](CC(N)=O)NC(=O)[C@H](C)NC(=O)[C@H](CC(C)C)NC(=O)[C@H](CCCNC(=N)N)NC(=O)[C@H](CCC(N)=O)NC(=O)[C@@H](NC(=O)[C@H](C)NC(=O)[C@@H]1CSSC[C@H](N)C(=O)N[C@@H](CC(N)=O)C(=O)N[C@@H]([C@@H](C)O)C(=O)N[C@@H](C)C(=O)N[C@@H]([C@@H](C)O)C(=O)N1)[C@@H](C)O)C(C)C)C(=O)NCC(=O)N1CCC[C@H]1C(=O)N[C@H](C(=O)N[C@@H](CC(C)C)C(=O)N1CCC[C@H]1C(=O)N1CCC[C@H]1C(=O)N[C@H](C(=O)N[C@@H](CC(N)=O)C(=O)N[C@H](C(=O)NCC(=O)N[C@@H](CO)C(=O)N[C@@H](CC(N)=O)C(=O)N[C@H](C(=O)N[C@@H](Cc1ccc(O)cc1)C(N)=O)[C@@H](C)O)C(C)C)[C@@H](C)O)C(C)C [Cmpd 2]
  IC50: 0.42 nM
